One assay has as its target CDK12 (UniProt Q9NYV4). The experiment in a line: co-IP.
In a further assay the target is Cyclin K (UniProt O75909). Kind of assay: co-IP.

Protein sequences, listed by entry. Tags and fused reporters are not part of them.
UniProt Q9NYV4: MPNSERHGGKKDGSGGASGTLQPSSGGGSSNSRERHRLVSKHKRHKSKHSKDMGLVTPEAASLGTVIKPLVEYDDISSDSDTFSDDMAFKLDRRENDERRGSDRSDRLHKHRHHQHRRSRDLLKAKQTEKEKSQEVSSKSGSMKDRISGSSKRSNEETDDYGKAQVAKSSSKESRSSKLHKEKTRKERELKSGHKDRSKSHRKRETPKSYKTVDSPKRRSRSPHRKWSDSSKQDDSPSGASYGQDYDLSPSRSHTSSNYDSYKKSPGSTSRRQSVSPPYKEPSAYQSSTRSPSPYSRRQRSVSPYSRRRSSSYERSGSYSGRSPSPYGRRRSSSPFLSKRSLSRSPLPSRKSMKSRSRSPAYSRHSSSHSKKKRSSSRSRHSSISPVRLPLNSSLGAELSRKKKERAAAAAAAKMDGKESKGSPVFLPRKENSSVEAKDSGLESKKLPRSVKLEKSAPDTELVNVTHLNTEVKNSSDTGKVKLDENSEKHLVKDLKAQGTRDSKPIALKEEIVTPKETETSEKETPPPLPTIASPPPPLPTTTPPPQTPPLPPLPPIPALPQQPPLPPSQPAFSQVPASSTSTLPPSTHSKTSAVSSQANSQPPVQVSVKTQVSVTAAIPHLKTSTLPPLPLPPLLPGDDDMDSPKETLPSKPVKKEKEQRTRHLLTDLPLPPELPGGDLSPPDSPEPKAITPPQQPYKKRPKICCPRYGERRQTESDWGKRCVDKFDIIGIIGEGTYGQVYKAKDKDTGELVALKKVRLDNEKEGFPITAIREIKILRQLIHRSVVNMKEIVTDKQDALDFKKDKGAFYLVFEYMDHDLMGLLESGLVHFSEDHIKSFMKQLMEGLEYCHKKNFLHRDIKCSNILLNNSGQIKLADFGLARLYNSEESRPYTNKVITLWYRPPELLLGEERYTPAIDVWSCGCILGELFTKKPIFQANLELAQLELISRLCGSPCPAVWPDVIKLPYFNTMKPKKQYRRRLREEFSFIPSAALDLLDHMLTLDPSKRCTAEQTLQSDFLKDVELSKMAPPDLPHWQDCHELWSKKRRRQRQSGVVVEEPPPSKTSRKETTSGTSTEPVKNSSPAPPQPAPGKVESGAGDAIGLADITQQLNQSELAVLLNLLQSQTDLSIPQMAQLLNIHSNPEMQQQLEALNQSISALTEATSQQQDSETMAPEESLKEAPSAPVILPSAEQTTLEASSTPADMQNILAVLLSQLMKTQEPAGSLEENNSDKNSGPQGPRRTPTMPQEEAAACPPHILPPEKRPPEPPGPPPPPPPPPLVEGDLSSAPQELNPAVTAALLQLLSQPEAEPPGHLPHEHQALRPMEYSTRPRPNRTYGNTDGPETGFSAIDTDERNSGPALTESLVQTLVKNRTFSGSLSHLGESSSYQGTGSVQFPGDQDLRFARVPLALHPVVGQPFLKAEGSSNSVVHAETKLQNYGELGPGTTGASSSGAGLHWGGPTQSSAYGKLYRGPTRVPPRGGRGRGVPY
UniProt O75909: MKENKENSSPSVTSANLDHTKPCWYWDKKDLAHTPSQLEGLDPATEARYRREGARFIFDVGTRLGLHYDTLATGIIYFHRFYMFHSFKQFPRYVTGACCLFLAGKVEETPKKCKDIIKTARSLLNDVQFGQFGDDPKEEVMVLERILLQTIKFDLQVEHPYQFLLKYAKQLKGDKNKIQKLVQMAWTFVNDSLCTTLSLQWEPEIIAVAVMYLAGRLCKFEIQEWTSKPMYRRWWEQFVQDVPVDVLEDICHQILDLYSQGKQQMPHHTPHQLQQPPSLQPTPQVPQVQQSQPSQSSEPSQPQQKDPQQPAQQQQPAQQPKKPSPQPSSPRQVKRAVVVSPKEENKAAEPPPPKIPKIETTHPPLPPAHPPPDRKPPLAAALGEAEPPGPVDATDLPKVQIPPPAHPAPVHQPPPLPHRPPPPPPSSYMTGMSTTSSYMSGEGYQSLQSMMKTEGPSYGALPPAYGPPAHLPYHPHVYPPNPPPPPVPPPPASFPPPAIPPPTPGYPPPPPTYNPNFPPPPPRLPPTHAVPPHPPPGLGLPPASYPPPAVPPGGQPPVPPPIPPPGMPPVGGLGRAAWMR

Results are given in words; binding and its absence hold for the method and conditions named. In cells and extracts the contact can be indirect. Some binding calls cover weakened binding; strength is not graded here.

As to Cyclin K (from UniProt O75909 1-580), the binding result with CDK12 is given as “binds”.

B1: Elongin A (overexpressed) (protein, UniProt Q14241 1-772)
chain: MAAESALQVVEKLQARLAANPDPKKLLKYLKKLSTLPITVDILAETGVGKTVNSLRKHEHVGSFARDLVAQWKKLVPVERNAEPDEQDFEKSNSRKRPRDALQKEEEMEGDYQETWKATGSRSYSPDHRQKKHRKLSELERPHKVSHGHERRDERKRCHRMSPTYSSDPESSDYGHVQSPPSCTSPHQMYVDHYRSLEEDQEPIVSHQKPGKGHSNAFQDRLGASQERHLGEPHGKGVVSQNKEHKSSHKDKRPVDAKSDEKASVVSREKSHKALSKEENRRPPSGDNAREKPPSSGVKKEKDREGSSLKKKCLPPSEAASDNHLKKPKHRDPEKAKLDKSKQGLDSFDTGKGAGDLLPKVKEKGSNNLKTPEGKVKTNLDRKSLGSLPKVEETDMEDEFEQPTMSFESYLSYDQPRKKKKKIVKTSATALGDKGLKKNDSKSTGKNLDSVQKLPKVNKTKSEKPAGADLAKLRKVPDVLPVLPDLPLPAIQANYRPLPSLELISSFQPKRKAFSSPQEEEEAGFTGRRMNSKMQVYSGSKCAYLPKMMTLHQQCIRVLKNNIDSIFEVGGVPYSVLEPVLERCTPDQLYRIEEYNHVLIEETDQLWKVHCHRDFKEERPEEYESWREMYLRLQDAREQRLRVLTKNIQFAHANKPKGRQAKMAFVNSVAKPPRDVRRRQEKFGTGGAAVPEKIKIKPAPYPMGSSHASASSISFNPSPEEPAYDGPSTSSAHLAPVVSSTVSYDPRKPTVKKIAPMMAKTIKAFKNRFSRR
As to B1, the binding result with CDK12 and in the assay with Cyclin K was “binds” each time.

The values above are taken from article doi:10.1101/2020.09.17.297960.
